The supplement of paper PMC10849652
This is one part of the list.

Chains of the proteins cited; added tags and fusions are not shown. Lines headed by an entry give the natural chain unless they say otherwise; changes in a name come on top.
UniProt P48507: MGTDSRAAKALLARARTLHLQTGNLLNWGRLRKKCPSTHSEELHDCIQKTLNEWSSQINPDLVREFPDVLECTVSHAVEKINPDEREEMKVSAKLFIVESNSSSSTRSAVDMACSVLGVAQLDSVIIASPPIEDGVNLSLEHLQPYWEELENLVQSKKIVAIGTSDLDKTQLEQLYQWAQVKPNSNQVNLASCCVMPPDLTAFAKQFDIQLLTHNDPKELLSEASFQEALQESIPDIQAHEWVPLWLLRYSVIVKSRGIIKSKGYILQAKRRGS
UniProt O94915: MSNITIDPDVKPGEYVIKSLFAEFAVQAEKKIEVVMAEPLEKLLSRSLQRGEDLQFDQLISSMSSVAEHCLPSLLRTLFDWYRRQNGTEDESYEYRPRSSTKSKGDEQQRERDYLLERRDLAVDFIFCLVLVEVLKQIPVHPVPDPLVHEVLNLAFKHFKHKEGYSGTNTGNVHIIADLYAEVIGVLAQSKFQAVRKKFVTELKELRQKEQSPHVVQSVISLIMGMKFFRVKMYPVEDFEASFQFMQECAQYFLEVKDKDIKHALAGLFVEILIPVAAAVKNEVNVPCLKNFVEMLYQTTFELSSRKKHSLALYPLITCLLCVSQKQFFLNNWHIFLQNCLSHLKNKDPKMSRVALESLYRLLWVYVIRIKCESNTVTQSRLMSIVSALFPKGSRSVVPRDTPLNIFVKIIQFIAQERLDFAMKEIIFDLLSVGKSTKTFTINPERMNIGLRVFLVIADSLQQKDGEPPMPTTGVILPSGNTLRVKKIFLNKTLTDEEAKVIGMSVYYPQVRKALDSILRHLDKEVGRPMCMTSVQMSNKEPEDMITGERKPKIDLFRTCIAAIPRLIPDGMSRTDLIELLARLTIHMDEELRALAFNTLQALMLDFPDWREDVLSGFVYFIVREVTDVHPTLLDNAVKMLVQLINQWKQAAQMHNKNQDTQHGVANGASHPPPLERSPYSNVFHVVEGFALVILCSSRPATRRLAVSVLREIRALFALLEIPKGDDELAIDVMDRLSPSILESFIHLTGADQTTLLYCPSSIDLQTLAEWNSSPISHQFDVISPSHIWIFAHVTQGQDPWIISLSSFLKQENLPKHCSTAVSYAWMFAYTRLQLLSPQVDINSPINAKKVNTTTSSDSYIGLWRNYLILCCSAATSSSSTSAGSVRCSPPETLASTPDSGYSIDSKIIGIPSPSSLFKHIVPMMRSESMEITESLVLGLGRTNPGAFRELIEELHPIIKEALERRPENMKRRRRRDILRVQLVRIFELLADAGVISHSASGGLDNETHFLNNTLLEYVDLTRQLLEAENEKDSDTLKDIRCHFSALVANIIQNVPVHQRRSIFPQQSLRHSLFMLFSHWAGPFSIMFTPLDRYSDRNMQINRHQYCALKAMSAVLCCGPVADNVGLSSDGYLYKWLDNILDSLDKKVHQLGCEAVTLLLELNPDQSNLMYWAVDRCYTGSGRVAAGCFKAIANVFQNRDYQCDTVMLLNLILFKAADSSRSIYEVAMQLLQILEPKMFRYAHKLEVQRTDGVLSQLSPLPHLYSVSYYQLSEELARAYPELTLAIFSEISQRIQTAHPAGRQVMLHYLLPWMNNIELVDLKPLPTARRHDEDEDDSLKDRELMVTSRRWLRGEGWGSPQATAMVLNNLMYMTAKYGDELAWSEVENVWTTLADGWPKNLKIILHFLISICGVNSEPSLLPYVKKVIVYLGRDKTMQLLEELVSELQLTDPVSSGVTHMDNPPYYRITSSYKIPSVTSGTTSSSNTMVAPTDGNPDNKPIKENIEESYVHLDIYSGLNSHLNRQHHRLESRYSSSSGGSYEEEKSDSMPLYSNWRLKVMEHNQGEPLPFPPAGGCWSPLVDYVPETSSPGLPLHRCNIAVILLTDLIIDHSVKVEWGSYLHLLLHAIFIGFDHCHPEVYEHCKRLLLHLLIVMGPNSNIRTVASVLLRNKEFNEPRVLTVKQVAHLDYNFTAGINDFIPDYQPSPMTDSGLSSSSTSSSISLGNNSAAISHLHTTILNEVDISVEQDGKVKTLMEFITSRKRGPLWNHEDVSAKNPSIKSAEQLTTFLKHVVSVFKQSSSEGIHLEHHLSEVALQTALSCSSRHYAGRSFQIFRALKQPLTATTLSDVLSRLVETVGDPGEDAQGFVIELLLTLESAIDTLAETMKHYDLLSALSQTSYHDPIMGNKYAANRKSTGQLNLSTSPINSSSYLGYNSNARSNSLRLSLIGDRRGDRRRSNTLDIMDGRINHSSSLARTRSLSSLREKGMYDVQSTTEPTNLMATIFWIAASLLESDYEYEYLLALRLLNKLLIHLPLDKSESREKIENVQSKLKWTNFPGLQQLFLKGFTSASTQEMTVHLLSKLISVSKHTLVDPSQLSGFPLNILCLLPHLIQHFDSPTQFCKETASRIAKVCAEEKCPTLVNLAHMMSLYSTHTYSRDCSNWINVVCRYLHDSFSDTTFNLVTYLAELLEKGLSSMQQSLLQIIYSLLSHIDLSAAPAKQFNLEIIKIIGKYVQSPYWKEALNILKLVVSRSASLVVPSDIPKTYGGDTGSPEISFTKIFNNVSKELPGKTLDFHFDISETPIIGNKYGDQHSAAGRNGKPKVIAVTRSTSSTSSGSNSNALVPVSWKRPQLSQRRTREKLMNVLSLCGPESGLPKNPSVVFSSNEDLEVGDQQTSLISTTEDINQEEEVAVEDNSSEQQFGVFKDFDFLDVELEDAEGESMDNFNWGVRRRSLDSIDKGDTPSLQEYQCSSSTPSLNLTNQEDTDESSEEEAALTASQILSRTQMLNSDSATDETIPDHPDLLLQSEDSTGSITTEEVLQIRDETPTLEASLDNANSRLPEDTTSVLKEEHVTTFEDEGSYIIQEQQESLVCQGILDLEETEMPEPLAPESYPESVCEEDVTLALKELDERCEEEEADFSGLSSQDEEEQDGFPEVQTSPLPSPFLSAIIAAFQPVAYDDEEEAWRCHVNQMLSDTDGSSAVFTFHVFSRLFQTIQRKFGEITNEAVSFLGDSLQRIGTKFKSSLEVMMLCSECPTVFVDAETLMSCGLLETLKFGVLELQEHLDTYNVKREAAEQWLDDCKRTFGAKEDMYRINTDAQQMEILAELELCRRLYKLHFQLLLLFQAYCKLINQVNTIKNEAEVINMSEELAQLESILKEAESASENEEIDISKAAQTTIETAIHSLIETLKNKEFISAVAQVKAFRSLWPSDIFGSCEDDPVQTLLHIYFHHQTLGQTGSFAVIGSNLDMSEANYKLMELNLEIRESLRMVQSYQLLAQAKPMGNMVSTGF
UniProt Q96CN9: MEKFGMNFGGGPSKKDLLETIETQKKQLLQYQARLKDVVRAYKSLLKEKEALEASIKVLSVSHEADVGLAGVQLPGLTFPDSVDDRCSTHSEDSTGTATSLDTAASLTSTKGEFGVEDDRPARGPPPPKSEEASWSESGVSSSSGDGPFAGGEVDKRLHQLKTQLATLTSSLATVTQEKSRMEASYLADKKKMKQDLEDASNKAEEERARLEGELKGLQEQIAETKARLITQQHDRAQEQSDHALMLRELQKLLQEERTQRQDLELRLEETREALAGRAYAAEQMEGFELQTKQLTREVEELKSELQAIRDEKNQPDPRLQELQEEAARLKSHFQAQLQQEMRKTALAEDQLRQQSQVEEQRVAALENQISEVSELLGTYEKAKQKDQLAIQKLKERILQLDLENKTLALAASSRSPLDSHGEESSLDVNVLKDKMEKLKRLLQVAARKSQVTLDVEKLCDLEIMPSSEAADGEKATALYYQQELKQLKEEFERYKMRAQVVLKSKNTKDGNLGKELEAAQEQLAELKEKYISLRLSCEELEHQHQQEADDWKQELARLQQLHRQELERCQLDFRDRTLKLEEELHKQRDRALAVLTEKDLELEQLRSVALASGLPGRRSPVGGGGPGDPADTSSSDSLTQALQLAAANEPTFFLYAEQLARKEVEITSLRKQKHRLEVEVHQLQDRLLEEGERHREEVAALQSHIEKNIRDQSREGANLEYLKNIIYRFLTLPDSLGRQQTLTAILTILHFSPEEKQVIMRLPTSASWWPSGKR
UniProt Q8IWJ2: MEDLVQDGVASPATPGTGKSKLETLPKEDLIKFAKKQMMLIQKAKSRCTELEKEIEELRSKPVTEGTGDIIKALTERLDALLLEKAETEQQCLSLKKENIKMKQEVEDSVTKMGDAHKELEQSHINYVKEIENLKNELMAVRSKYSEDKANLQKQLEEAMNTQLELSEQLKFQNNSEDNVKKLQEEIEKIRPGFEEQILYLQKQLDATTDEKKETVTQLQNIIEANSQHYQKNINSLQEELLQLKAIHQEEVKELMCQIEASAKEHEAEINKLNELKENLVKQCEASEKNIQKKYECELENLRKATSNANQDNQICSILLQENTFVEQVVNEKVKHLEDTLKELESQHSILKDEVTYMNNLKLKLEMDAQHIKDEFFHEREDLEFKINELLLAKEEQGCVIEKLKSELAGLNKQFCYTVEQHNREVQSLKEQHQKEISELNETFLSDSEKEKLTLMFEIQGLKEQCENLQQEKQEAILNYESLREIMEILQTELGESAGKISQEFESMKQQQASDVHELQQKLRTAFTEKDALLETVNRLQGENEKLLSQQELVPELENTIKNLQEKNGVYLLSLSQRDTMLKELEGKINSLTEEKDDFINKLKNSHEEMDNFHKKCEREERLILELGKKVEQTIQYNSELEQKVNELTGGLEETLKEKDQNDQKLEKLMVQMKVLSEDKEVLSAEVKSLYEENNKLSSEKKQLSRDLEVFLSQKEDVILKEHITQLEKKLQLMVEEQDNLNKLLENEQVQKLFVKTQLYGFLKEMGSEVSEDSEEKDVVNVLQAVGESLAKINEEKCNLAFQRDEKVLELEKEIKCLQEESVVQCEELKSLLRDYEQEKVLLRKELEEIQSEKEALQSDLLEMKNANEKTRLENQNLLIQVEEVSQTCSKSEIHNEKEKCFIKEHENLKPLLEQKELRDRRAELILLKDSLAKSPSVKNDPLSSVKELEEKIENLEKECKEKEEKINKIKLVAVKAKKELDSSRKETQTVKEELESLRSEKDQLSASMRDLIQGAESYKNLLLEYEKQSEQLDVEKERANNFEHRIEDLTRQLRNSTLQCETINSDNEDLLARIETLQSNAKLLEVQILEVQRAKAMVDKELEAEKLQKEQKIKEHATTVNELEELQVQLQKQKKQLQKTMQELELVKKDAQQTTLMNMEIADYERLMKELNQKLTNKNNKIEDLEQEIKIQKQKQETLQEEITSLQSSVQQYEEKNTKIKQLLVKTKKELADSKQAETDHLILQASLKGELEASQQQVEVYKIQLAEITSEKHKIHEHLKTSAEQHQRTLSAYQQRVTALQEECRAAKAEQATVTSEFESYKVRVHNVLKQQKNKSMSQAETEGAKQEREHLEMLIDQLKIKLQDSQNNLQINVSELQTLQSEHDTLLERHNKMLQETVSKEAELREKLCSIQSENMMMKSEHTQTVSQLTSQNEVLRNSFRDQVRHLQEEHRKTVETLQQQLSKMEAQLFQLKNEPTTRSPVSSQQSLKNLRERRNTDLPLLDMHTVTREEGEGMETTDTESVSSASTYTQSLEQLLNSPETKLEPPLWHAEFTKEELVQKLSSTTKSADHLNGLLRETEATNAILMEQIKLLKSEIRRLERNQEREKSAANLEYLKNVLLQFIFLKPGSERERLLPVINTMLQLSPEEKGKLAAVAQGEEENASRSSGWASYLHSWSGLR
UniProt Q9UET6: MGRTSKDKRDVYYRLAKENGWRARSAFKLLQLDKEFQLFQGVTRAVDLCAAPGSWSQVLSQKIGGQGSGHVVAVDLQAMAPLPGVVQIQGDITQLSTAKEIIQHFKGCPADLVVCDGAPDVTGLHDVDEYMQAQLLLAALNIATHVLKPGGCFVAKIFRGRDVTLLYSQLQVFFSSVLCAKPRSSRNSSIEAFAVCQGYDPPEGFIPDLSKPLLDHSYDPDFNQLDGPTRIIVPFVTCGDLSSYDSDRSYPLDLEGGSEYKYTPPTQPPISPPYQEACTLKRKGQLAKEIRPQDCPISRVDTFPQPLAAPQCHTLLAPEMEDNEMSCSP
UniProt Q96CU9: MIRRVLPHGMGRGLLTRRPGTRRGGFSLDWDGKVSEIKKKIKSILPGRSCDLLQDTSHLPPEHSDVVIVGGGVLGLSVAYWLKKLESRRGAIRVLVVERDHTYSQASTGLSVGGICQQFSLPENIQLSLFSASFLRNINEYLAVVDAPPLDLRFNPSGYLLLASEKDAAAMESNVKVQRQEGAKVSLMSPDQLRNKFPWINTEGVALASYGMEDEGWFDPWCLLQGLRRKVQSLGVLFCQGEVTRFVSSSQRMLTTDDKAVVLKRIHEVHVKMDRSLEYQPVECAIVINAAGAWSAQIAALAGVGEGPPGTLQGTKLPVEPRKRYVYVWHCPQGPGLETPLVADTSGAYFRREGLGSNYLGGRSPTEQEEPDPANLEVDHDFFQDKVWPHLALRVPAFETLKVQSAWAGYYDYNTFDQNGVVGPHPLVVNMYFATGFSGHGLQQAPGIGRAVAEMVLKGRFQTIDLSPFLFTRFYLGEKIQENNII

compound: c1cn2cc(-c3ccc4cn[nH]c4c3)nc(Nc3ccc(N4CCOCC4)cc3)c2n1 [entospletinib]; experiment: log2 fold change, soluble protein after heating vs DMSO (PISA); higher = thermal stabilisation; K562 lysate, 10 uM; active = over 0.2 and 3.5 SD of the protein, either way, in both replicates (recomputed)
Procedure, shortened: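 Dounce homogenisation of K562 pellets in PBS pH 7.4 with 1 mM MgCl2 produced a crude extract, used at 1 mg/mL protein. Exposure to 10 μM compound lasted 30 min, and aliquots were then heated for 3 min across 48°C-58°C, pooled and brought to 0.5% NP-40 at 4°C. The supernatant after 21,000xg for 90 min was quantified by TMTpro 16plex LC-MS/MS with channel sums equalised. Duplicate values are given as log-two fold change in thermal stability relative to solvent controls.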

log2 fold change, inactive:
GAGE12F (UniProt P0CL80) -0.241, GDAP1 (UniProt Q8TB36) 0.039, GAPVD1 isoform 6 (UniProt Q14C86) -0.002, FPGT (UniProt O14772) -0.062, FYTTD1 (UniProt Q96QD9) 0.01, GCLC (UniProt P48506) -0.022, GDI2 (UniProt P50395) -0.004, GALNT10 (UniProt Q86SR1) -0.088, GCLM (UniProt P48507) 0.021, FOXJ3 (UniProt Q9UPW0) 0.022, GATAD2A isoform 3 (UniProt Q86YP4) -0.001, GALNT2 (UniProt Q10471) -0.034, GFM1 (UniProt Q96RP9) 0.016, FRA10AC1 (UniProt Q70Z53) -0.028, GEMIN6 (UniProt Q8WXD5) 0.007, GARS1 (UniProt P41250) -0.007, GCSH (UniProt P23434) 0.012, GAB1 isoform 2 (UniProt Q13480) 0.112, FRYL (UniProt O94915) 0.019, GDPGP1 (UniProt Q6ZNW5) 0.03, FYN (UniProt P06241) 0.156, GALNT5 (UniProt Q7Z7M9) 0.012, GCC1 (UniProt Q96CN9) -0.036, GFPT1 (UniProt Q06210) 0.019, GCC2 (UniProt Q8IWJ2) 0.009, GEMIN8 (UniProt Q9NWZ8) 0.036, FUS (UniProt P35637) 0.011, GANAB isoform 2 (UniProt Q14697) 0, FTSJ1 (UniProt Q9UET6) 0.05, GEMIN4 (UniProt P57678) 0.034, GBA (UniProt P04062) -0.058, GABARAPL2 (UniProt P60520) 0.024, FXN (UniProt Q16595) -0.06, GAMT (UniProt Q14353) -0.001, GAPDH (UniProt P04406) 0.003, GALT (UniProt P07902) 0, FOXRED1 (UniProt Q96CU9) -0.023, GCN1 (UniProt Q92616) -0.011, FTH1 (UniProt P02794) -0.038
